Some entries share one result that the patent states for a list of compounds.
Biological target: T1, purified human Factor XIa (Homo sapiens, UniProt P03951)
T1 construct: purchased Haematologic Technologies
Test: Factor XIa assay (chromogenic substrate hydrolysis, Ki)
Format: biochemical
Conditions: tested in the Factor XIa assay described above

By UniProt entry, the sequences of proteins in these tests, tags left out. Residues count along the entry.
UniProt P03951, 19-387 partner limits assumed: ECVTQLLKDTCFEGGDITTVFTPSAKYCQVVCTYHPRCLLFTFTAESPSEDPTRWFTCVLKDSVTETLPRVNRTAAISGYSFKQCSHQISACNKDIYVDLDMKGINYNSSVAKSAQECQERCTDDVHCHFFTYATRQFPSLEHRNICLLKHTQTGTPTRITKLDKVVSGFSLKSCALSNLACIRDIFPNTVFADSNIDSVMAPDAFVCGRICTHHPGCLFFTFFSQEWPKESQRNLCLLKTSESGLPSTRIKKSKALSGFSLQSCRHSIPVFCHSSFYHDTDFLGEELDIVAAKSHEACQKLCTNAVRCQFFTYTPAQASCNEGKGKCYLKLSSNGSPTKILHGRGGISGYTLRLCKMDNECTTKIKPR
UniProt P03951, 388-625 limits assumed: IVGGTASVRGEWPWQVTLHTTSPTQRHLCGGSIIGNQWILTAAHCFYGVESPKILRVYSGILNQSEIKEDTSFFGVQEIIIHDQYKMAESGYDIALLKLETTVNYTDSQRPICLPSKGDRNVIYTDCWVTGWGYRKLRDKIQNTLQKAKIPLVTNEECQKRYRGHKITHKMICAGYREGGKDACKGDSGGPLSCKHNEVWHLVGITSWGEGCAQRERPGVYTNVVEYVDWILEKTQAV

Row | SMILES | Factor XIa inhibitory activity
1 | COC(=O)Nc1ccc(-c2cc([C@H](CSC)NC(=O)/C=C/c3cc(Cl)ccc3-n3cnnn3)n[nH]c2=O)cc1 [Example 169, (R,E)-Methyl 4-(6-(1-(3-(5-chloro-2-(1H-tetrazol-1-yl)phenyl)acrylamido)-2-(methylthio)ethyl)-3-oxo-2,3-dihydropyridazin-4-yl)phenylcarbamate] | having Factor XIa inhibitory activity
2 | COC(=O)Nc1ccc(-c2cc([C@H](CS(C)(=O)=O)NC(=O)/C=C/c3cc(Cl)ccc3-n3cnnn3)n[nH]c2=O)cc1 [Example 170, (R,E)-Methyl 4-(6-(1-(3-(5-chloro-2-(1H-tetrazol-1-yl)phenyl)acrylamido)-2-(methylsulfonyl)ethyl)-3-oxo-2,3-dihydropyridazin-4-yl)phenylcarbamate] | having Factor XIa inhibitory activity
3 | COC(=O)Nc1ccc(-c2cc(C(Cc3noc(C(C)(C)C)n3)NC(=O)/C=C/c3cc(Cl)ccc3-n3cnnn3)n[nH]c2=O)cc1 (stereo not shown) [Example 171, (E)-Methyl 4-(6-(2-(5-tert-butyl-1,2,4-oxadiazol-3-yl)-1-(3-(5-chloro-2-(1H-tetrazol-1-yl)phenyl)acrylamido)ethyl)-3-oxo-2,3-dihydropyridazin-4-yl)phenylcarbamate] | having Factor XIa inhibitory activity
4 | COC(=O)Nc1ccc(-c2cc([C@H](CSCC(C)(C)C)NC(=O)/C=C/c3cc(Cl)ccc3-n3cnnn3)n[nH]c2=O)cc1 [Example 172, (R,E)-Methyl 4-(6-(1-(3-(5-chloro-2-(1H-tetrazol-1-yl)phenyl)acrylamido)-2-(neopentylthio)ethyl)-3-oxo-2,3-dihydropyridazin-4-yl)phenylcarbamate] | having Factor XIa inhibitory activity
5 | COC(=O)Nc1ccc(-c2cc([C@H](Cc3nc(C)c(C)s3)NC(=O)/C=C/c3cc(Cl)ccc3-n3cnnn3)n[nH]c2=O)cc1 [Example 173, (S,E)-Methyl 4-(6-(1-(3-(5-chloro-2-(1H-tetrazol-1-yl)phenyl)acrylamido)-2-(4,5-dimethylthiazol-2-yl)ethyl)-3-oxo-2,3-dihydropyridazin-4-yl)phenylcarbamate] | having Factor XIa inhibitory activity
6 | COC(=O)Nc1ccc(-c2cc([C@H](CS(=O)(=O)CC(C)(C)C)NC(=O)/C=C/c3cc(Cl)ccc3-n3cnnn3)n[nH]c2=O)cc1 [Example 174, (R,E)-Methyl 4-(6-(1-(3-(5-chloro-2-(1H-tetrazol-1-yl)phenyl)acrylamido)-2-(neopentylsulfonyl)ethyl)-3-oxo-2,3-dihydropyridazin-4-yl)phenylcarbamate] | having Factor XIa inhibitory activity
7 | COC(=O)Nc1ccc(-c2cc([C@H](CC(=O)N3CCC(F)(F)C3)NC(=O)/C=C/c3cc(Cl)ccc3-n3cnnn3)n[nH]c2=O)cc1 [Example 175, (S,E)-Methyl 4-(6-(1-(3-(5-chloro-2-(1H-tetrazol-1-yl)phenyl)acrylamido)-3-(3,3-difluoropyrrolidin-1-yl)-3-oxopropyl)-3-oxo-2,3-dihydropyridazin-4-yl)phenylcarbamate] | having Factor XIa inhibitory activity
8 | COC(=O)Nc1ccc(-c2cc([C@H](CC(=O)N3CC[C@H](F)C3)NC(=O)/C=C/c3cc(Cl)ccc3-n3cnnn3)n[nH]c2=O)cc1 [Example 176, Methyl 4-(6-((S)-1-((E)-3-(5-chloro-2-(1H-tetrazol-1-yl)phenyl)acrylamido)-3-((S)-3-fluoropyrrolidin-1-yl)-3-oxopropyl)-3-oxo-2,3-dihydropyridazin-4-yl)phenylcarbamate] | having Factor XIa inhibitory activity
9 | COC(=O)Nc1ccc(-c2cc([C@H](CC(=O)N3CC(F)(F)C3)NC(=O)/C=C/c3cc(Cl)ccc3-n3cnnn3)n[nH]c2=O)cc1 [Example 177, (S,E)-Methyl 4-(6-(1-(3-(5-chloro-2-(1H-tetrazol-1-yl)phenyl)acrylamido)-3-(3,3-difluoroazetidin-1-yl)-3-oxopropyl)-3-oxo-2,3-dihydropyridazin-4-yl)phenylcarbamate] | having Factor XIa inhibitory activity
10 | COC(=O)Nc1ccc(-c2cc([C@H](CNS(=O)(=O)c3cccc(-n4cccn4)c3)NC(=O)/C=C/c3cc(Cl)ccc3-n3cnnn3)n[nH]c2=O)cc1 [Example 179, (S,E)-Methyl 4-(6-(2-(3-(1H-pyrazol-1-yl)phenylsulfonamido)-1-(3-(5-chloro-2-(1H-tetrazol-1-yl)phenyl)acrylamido)ethyl)-3-oxo-2,3-dihydropyridazin-4-yl)phenylcarbamate] | having Factor XIa inhibitory activity
11 | COC(=O)Nc1ccc(-c2cc([C@H](CNS(=O)(=O)c3cn(C)nc3C)NC(=O)/C=C/c3cc(Cl)ccc3-n3cnnn3)n[nH]c2=O)cc1 [Example 180, (S,E)-Methyl 4-(6-(1-(3-(5-chloro-2-(1H-tetrazol-1-yl)phenyl)acrylamido)-2-(1,3-dimethyl-1H-pyrazole-4-sulfonamido)ethyl)-3-oxo-2,3-dihydropyridazin-4-yl)phenylcarbamate] | having Factor XIa inhibitory activity
12 | COC(=O)Nc1ccc(-c2cc(C(Cc3csc(C(C)C)n3)NC(=O)/C=C/c3cc(Cl)ccc3-n3cnnn3)nnc2Cl)cc1 (stereo not shown) [Example 181, (E)-Methyl 4-(3-chloro-6-(1-(3-(5-chloro-2-(1H-tetrazol-1-yl)phenyl)acrylamido)-2-(2-isopropylthiazol-4-yl)ethyl)pyridazin-4-yl)phenylcarbamate] | having Factor XIa inhibitory activity
13 | COC(=O)Nc1ccc(-c2cc([C@H](CS(C)(=O)=O)NC(=O)/C=C/c3cc(Cl)ccc3-n3cnnn3)nnc2Cl)cc1 [Example 182, (R,E)-Methyl 4-(3-chloro-6-(1-(3-(5-chloro-2-(1H-tetrazol-1-yl)phenyl)acrylamido)-2-(methylsulfonyl)ethyl)pyridazin-4-yl)phenylcarbamate] | having Factor XIa inhibitory activity

Reference: patent publication US8324199B2, “Pyridazine derivatives as factor xia inhibitors” (Bristol-Myers Squibb Company, priority 2008, dated 2012)
